# Results: the supplement of paper PMC12819154, “High-throughput peptide-centric local stability assay extends protein–ligand identification to membrane proteins, tissues and bacteria” (Nature Structural & Molecular Biology, 2025)
# The chains behind the UniProt entries cited, without tags or fusion partners. Where a name states a change or a piece, a line headed by the entry shows the natural chain unless it says otherwise.
# UniProt P17035: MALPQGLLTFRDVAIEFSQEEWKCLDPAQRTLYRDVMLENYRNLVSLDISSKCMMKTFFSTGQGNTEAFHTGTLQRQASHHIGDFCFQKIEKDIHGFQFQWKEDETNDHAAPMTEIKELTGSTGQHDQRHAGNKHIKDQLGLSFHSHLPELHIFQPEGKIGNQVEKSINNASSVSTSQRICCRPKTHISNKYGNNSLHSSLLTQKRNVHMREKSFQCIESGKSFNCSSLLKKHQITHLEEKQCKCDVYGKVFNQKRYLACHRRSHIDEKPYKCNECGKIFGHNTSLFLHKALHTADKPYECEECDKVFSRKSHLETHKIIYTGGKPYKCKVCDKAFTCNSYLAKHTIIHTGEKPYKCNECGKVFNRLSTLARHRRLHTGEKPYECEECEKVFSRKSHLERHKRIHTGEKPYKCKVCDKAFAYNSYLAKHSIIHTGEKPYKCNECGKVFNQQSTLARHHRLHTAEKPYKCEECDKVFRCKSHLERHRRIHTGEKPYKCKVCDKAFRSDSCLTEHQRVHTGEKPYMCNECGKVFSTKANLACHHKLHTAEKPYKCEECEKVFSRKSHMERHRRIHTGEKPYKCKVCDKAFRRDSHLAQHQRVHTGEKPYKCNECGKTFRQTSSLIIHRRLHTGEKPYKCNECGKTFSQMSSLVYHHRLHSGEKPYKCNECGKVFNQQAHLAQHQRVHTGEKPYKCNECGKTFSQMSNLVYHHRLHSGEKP
# UniProt P16150: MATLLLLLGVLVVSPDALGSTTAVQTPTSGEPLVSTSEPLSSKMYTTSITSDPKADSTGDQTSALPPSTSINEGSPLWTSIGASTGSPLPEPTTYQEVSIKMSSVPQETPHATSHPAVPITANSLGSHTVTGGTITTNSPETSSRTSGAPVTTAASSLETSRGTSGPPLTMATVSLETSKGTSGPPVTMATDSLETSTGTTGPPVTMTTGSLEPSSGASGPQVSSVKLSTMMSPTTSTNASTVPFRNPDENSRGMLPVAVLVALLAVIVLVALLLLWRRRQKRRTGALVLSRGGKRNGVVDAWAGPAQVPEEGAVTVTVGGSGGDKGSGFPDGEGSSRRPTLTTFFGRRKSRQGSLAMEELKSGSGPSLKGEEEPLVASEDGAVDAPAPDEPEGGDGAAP
# UniProt P25205: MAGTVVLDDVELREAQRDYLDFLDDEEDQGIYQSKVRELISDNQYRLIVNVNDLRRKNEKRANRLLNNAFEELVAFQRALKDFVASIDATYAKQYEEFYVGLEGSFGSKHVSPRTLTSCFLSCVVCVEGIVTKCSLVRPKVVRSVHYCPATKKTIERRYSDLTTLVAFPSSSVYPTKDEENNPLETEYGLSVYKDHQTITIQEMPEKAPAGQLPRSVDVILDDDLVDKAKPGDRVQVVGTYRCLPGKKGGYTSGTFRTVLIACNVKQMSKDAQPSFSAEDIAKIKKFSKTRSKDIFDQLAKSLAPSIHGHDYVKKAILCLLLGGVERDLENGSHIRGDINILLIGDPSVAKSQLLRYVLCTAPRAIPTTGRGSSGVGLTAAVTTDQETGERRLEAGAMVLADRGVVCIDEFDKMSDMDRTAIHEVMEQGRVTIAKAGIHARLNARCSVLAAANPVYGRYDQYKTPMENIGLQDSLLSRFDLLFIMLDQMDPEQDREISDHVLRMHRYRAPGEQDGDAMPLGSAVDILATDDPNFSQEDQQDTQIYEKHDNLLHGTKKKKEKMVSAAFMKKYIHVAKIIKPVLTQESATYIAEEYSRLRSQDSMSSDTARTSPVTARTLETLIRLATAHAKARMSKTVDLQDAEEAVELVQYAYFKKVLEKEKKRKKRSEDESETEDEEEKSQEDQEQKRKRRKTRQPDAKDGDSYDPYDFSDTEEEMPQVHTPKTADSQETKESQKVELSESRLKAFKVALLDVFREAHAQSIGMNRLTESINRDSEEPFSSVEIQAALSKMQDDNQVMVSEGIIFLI
# UniProt P25963: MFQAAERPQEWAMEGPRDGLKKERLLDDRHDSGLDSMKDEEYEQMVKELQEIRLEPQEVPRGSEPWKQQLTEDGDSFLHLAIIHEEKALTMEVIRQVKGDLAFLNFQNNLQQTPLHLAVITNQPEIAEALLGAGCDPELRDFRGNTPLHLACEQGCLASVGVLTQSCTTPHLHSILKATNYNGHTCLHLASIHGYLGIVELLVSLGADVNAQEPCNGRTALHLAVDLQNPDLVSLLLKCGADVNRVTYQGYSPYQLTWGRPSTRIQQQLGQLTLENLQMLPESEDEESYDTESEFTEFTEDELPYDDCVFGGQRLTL
# UniProt P23526: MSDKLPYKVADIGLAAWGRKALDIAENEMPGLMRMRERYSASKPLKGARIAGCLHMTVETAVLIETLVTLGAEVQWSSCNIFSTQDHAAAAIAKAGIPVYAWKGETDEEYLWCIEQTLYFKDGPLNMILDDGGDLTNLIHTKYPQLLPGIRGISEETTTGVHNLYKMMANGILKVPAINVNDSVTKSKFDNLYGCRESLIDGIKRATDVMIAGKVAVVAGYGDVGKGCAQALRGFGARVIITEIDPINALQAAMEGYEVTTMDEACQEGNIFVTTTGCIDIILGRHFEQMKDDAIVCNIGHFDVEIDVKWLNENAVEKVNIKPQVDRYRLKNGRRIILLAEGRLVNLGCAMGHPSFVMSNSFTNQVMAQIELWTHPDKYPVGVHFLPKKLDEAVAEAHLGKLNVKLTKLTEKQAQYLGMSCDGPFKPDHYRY
# UniProt P16083: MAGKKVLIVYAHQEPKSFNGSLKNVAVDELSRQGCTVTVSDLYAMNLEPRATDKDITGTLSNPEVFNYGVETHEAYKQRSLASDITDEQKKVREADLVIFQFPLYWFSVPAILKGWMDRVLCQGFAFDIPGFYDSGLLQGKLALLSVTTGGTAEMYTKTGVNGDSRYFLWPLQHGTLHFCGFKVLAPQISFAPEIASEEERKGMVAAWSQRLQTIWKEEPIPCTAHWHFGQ
# Some of the results follow. Most values lie at the level of the controls, where differences are scatter.
# Compound: Cc1nc(Nc2ncc(C(=O)Nc3c(C)cccc3Cl)s2)cc(N2CCN(CCO)CC2)n1 [dasatinib]
# Assay: log2 fold change of tryptic peptide abundance, ligand vs vehicle (limited proteolysis) (log2 ratio); higher = more trypsin-susceptible (destabilized)
# Settings: ligand concentration: 5 uM; sample: K562 cleared lysate
row,Target,log2 fold change
1,"UniProt P17035 (peptide sequence: DSHLAQHQR, peptide start residue: 451)",0.59
2,"SPN (peptide sequence: QGSLAMEELK, peptide start residue: 353) (UniProt P16150)",-0.0644
3,"MCM3 (peptide sequence: GSSGVGLTAAVTTDQETGER, peptide start residue: 372) (UniProt P25205)",1.13
4,"NFKBIA (peptide sequence: HDSGLDSMKDEEYEQMVK, peptide start residue: 30) (UniProt P25963)",0.571
5,"AHCY (peptide sequence: SDKLPYK, peptide start residue: 2) (UniProt P23526)",-0.127
6,"UniProt P17612 (peptide sequence: CGKEFSEF, peptide start residue: 344)",0.145
7,"UniProt P25398 (peptide sequence: LVEALCAEHQINLIKVDDNKK, peptide start residue: 64)",-0.0963
8,"NQO2 (peptide sequence: SLASDITDEQKK, peptide start residue: 80) (UniProt P16083)",-0.425
